Results are given in words; binding and its absence hold for the method and conditions named. Binding seen in cells or lysates may run through a third protein. These calls come from enrichment with a bait or labelling near it, and not all partners need be listed. Where a sequence is shown, tags or fusion partners need not be part of it.
Tests used:
Assay in all cases: co-immunoprecipitation with 8C7 from A431 Brij-O10 lysate, mass spectrometry
[1] = target: EIF2a (human)
[2] = target: T1, LMAN1 (human) (UniProt P49257)
T1 sequence (looked up): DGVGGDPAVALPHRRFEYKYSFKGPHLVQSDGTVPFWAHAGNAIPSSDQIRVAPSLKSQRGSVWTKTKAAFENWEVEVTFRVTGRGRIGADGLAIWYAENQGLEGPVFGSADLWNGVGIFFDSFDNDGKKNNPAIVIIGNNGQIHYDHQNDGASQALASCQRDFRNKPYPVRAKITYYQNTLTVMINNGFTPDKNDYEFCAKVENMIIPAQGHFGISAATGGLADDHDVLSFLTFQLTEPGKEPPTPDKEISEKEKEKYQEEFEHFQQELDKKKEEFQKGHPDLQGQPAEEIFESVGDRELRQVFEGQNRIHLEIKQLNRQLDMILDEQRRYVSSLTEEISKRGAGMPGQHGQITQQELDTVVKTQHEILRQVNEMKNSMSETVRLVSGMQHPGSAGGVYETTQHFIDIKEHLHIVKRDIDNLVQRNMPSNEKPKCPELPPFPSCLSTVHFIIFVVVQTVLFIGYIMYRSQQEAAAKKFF

The chains behind the UniProt entries cited, without tags or fusion partners.
UniProt P08579: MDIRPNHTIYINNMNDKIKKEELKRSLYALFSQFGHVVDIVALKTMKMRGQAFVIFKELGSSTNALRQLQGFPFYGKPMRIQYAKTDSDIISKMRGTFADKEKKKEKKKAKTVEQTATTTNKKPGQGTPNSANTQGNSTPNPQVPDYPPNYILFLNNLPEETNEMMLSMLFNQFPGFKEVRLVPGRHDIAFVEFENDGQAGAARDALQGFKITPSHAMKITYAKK

[3] = target: SNRPB2 (human) (UniProt P08579)

Measured: binding

B1: Prostaglandin F2 Receptor Inhibitor (PTGFRN), expressed by cells (receptor, human, UniProt Q9P2B2 26-879, looked up)
chain: VPTATLVRVVGTELVIPCNVSDYDGPSEQNFDWSFSSLGSSFVELASTWEVGFPAQLYQERLQRGEILLRRTANDAVELHIKNVQPSDQGHYKCSTPSTDATVQGNYEDTVQVKVLADSLHVGPSARPPPSLSLREGEPFELRCTAASASPLHTHLALLWEVHRGPARRSVLALTHEGRFHPGLGYEQRYHSGDVRLDTVGSDAYRLSVSRALSADQGSYRCIVSEWIAEQGNWQEIQEKAVEVATVVIQPSVLRAAVPKNVSVAEGKELDLTCNITTDRADDVRPEVTWSFSRMPDSTLPGSRVLARLDRDSLVHSSPHVALSHVDARSYHLLVRDVSKENSGYYYCHVSLWAPGHNRSWHKVAEAVSSPAGVGVTWLEPDYQVYLNASKVPGFADDPTELACRVVDTKSGEANVRFTVSWYYRMNRRSDNVVTSELLAVMDGDWTLKYGERSKQRAQDGDFIFSKEHTDTFNFRIQRTTEEDRGNYYCVVSAWTKQRNNSWVKSKDVFSKPVNIFWALEDSVLVVKARQPKPFFAAGNTFEMTCKVSSKNIKSPRYSVLIMAEKPVGDLSSPNETKYIISLDQDSVVKLENWTDASRVDGVVLEKVQEDEFRYRMYQTQVSDAGLYRCMVTAWSPVRGSLWREAATSLSNPIEIDFQTSGPIFNASVHSDTPSVIRGDLIKLFCIITVEGAALDPDDMAFDVSWFAVHSFGLDKAPVLLSSLDRKGIVTTSRRDWKSDLSLERVSVLEFLLQVHGSEDQDFGNYYCSVTPWVKSPTGSWQKEAEIHSKPVFITVKMDVLNAFKYPLLIGVGLSTVIGLLSCLIGYCSSHWCCKKEVQETRRERRRLMSMEMD
binds: all assays above
